Measurements as given in the supplement of paper PMC10849652.
Some of the results follow.

Chains of the proteins cited; added tags and fusions are not shown. Lines headed by an entry give the natural chain unless they say otherwise; changes in a name come on top.
UniProt Q9Y315: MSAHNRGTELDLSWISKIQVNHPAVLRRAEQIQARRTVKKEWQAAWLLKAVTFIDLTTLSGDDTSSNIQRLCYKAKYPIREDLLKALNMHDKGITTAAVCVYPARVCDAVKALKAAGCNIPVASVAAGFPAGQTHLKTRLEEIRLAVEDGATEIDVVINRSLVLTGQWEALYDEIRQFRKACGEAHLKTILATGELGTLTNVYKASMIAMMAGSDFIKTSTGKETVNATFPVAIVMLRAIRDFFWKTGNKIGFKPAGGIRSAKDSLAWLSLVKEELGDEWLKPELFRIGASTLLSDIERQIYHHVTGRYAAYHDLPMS
UniProt Q13574: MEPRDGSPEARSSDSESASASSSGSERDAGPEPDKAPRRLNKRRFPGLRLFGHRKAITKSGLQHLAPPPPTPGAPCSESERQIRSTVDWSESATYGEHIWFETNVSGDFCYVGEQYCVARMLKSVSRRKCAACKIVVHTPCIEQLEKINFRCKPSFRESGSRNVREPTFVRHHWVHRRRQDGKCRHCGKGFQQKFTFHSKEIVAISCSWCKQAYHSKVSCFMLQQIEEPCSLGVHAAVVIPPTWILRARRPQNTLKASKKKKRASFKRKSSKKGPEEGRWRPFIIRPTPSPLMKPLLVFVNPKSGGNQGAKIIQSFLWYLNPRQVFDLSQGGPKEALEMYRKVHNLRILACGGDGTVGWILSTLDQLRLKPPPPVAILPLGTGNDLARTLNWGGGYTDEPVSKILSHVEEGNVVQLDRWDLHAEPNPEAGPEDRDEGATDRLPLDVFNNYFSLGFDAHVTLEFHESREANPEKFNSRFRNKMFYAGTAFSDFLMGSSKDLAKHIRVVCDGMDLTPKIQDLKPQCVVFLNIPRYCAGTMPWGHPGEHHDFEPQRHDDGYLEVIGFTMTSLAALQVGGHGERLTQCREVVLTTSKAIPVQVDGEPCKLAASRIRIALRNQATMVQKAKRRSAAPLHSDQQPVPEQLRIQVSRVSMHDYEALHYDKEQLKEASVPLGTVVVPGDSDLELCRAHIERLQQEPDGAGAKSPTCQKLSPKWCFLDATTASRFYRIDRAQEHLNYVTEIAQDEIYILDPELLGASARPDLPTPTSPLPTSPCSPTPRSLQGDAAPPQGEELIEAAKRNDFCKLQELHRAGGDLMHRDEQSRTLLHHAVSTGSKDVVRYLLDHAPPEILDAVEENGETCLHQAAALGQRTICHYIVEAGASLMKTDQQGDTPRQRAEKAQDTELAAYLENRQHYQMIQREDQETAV
UniProt Q14689: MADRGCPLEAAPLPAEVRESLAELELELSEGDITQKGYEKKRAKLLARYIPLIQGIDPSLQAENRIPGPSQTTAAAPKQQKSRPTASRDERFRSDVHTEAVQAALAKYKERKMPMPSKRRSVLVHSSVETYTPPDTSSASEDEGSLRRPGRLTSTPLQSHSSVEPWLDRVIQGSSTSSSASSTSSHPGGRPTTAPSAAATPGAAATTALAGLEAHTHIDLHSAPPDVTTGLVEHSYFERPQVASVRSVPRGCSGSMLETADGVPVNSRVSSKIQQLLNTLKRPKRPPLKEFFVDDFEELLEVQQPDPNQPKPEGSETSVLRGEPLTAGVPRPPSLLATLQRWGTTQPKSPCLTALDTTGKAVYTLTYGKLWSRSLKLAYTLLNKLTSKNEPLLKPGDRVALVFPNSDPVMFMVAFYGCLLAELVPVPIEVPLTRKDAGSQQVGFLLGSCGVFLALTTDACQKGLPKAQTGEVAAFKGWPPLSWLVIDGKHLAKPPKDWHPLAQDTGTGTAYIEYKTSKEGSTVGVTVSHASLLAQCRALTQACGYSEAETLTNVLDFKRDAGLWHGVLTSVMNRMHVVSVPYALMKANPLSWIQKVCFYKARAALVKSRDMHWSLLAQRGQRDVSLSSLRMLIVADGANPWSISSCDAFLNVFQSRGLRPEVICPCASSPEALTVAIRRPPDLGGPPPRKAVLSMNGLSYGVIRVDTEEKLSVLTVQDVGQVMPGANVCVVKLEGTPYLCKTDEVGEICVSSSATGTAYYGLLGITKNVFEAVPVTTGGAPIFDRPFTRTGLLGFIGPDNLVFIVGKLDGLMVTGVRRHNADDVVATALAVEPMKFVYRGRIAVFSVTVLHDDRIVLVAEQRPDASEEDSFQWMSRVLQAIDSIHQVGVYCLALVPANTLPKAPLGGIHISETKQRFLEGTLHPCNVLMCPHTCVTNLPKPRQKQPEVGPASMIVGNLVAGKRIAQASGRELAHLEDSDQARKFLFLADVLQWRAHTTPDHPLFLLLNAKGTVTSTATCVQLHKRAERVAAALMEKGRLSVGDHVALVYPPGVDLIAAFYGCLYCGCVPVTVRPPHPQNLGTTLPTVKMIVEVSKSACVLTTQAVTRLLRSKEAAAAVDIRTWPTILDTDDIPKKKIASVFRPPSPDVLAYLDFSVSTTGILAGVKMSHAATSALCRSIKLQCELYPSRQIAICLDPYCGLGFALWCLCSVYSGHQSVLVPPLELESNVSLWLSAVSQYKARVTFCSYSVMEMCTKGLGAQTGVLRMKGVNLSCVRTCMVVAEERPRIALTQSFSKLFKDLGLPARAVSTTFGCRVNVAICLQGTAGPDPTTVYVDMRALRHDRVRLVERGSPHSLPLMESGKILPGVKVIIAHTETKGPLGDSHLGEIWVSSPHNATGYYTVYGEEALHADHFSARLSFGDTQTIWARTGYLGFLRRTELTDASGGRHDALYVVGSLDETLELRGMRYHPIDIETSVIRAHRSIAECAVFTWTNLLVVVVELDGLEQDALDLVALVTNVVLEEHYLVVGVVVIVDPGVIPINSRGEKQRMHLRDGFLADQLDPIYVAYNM
UniProt Q9NUU7: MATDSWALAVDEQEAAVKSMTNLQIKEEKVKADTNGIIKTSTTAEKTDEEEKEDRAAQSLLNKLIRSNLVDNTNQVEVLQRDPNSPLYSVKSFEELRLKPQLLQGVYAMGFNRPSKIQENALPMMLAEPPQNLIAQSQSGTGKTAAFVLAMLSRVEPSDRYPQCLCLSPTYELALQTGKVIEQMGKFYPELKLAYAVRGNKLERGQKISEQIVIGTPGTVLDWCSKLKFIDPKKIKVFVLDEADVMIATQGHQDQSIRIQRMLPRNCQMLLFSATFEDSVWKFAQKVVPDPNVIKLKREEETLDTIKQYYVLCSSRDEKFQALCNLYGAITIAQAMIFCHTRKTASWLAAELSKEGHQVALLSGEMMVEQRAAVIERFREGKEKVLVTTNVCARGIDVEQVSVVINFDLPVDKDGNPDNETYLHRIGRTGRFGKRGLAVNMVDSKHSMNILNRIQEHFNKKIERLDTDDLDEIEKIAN
UniProt Q02127: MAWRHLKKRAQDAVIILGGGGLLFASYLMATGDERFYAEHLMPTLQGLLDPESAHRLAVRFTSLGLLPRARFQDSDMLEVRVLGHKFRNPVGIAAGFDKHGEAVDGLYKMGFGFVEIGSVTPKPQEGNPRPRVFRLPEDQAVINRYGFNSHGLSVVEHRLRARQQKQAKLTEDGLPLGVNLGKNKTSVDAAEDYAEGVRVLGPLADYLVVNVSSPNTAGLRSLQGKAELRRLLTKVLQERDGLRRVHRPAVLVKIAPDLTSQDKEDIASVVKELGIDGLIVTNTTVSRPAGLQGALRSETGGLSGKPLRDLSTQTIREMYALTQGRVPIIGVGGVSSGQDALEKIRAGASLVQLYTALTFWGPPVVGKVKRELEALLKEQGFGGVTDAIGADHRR
UniProt Q7Z4W1: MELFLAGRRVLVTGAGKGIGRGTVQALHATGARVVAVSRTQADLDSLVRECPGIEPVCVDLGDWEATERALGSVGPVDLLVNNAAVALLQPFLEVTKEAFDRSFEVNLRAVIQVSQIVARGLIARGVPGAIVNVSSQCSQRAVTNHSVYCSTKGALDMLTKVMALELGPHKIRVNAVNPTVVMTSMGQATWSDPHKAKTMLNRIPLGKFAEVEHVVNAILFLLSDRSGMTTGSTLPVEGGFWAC
UniProt Q13268: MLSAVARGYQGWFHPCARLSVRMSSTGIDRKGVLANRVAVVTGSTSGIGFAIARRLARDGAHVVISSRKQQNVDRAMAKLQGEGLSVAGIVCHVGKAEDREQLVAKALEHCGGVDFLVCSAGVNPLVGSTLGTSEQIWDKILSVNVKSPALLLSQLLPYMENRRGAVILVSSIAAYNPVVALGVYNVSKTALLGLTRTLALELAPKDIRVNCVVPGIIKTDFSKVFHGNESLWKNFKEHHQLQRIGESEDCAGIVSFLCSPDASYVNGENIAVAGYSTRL
UniProt Q7L014: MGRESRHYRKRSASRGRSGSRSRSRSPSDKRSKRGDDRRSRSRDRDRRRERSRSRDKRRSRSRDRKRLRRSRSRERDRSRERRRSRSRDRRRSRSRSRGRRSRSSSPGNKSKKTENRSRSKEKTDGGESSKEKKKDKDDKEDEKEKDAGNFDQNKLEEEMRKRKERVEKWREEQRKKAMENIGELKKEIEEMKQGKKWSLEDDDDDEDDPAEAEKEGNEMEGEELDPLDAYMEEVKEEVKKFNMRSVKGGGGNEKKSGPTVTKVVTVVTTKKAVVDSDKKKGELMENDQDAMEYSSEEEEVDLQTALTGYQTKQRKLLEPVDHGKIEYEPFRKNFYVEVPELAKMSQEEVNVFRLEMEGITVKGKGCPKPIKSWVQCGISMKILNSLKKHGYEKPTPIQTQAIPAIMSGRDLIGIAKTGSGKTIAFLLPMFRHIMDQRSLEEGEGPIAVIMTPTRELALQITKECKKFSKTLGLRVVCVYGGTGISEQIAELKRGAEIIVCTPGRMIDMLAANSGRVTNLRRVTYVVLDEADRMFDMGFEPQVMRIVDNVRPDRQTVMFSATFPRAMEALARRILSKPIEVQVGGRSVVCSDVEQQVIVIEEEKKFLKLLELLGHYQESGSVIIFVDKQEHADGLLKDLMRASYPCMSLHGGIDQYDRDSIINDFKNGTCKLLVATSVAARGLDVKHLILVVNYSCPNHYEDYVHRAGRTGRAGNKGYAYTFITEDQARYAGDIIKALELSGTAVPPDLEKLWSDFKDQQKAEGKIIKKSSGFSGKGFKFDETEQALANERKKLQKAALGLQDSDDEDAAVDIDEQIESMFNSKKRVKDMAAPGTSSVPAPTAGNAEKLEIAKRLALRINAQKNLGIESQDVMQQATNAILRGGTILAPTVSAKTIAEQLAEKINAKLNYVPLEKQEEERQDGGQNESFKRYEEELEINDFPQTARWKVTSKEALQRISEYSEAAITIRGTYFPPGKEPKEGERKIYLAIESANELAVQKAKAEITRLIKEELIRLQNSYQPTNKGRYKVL
UniProt Q14562: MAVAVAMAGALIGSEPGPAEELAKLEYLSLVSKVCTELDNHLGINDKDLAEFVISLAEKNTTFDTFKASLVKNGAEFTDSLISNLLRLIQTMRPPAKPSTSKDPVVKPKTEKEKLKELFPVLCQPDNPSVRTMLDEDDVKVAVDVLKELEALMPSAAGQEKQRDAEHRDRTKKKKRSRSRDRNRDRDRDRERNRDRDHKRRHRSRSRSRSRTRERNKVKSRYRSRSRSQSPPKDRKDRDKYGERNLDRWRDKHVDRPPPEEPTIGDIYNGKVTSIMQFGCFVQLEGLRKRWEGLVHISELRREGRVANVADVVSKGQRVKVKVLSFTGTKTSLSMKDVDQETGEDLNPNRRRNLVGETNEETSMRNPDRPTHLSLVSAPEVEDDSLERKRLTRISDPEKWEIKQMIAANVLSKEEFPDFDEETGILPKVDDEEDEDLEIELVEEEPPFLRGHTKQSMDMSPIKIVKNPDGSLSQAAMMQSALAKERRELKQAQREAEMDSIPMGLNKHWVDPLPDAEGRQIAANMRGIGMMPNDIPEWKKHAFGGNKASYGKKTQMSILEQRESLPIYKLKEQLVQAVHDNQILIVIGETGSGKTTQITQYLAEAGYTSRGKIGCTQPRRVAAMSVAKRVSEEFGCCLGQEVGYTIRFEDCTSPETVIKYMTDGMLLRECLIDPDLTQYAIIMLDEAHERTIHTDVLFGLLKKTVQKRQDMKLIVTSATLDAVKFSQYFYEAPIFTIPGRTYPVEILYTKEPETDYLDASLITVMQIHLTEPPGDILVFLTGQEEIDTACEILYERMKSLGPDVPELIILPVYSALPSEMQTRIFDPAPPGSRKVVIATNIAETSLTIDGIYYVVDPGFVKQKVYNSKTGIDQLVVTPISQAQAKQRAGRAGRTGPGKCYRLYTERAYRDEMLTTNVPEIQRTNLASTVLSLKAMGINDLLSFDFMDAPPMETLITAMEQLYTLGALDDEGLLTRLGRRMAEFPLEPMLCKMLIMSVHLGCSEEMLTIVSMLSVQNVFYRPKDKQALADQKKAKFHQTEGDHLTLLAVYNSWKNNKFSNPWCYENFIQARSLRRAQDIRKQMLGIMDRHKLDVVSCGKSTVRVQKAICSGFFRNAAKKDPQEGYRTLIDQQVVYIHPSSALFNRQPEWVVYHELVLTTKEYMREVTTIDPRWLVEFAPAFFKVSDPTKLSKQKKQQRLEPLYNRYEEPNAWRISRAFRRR

Experiments:
Test in all cases: log2 fold change, soluble protein after heating vs DMSO (PISA); higher = thermal stabilisation; K562 cells, 10 uM, 30 min; active = over 0.2 and 3.5 SD of the protein, either way, in both replicates (recomputed)
[1] = compound: CC1=C(C=C(C=C1)NC(=O)C2=CC(=CC=C2)C(C)(C)C#N)NC3=CC4=C(C=C3)N=CN(C4=O)C
Outline: (§1)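 Thermal stability values are relative to control samples and come from duplicates. They are expressed as log2 fold changes. For measurement, K562 cells (2×10^6 cells/mL) received 10 μM compound for 30 min, and aliquots were heated for 3 min over 48°C-58°C, pooled, and extracted at 4°C in PBS with 0.5% NP-40. Soluble protein, the supernatant after 21,000xg for 90 min, was quantified by TMTpro 16plex LC-MS/MS with equalised channel sums.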

[2] = compound: CC1=C(C=C(C=C1)NC(=O)C2=CC(=CC=C2)N(C)C)NC(=O)C3=CC=C(C=C3)O
Outline: as §1

[3] = compound: CC1=CC=C(C=C1)SC2=C3C=C(SC3=CN=C2)C(=O)N
Outline: as §1

[4] = compound: CC1=NC(=CC=C1)C2=C(N=C(N2)C(C)(C)C)C3=CC4=NC=CN=C4C=C3
Outline: as §1

[5] = compound: CCCCN(Cc1ccc(C(=O)NO)cc1)C(=O)Nc1ccccc1 [Nexturastat A]
Outline: as §1

[6] = compound: CCCS(=O)(=O)Nc1ccc(F)c(C(=O)c2c[nH]c3ncc(-c4ccc(Cl)cc4)cc23)c1F [vemurafenib]
Outline: as §1

[7] = compound: CCCS(=O)(=O)Nc1ccc(F)c(C(=O)c2c[nH]c3ncc(Cl)cc23)c1F
Outline: as §1

[8] = compound: CCCc1cc(C)[nH]c(=O)c1CNC(=O)c1cc(-c2ccnc(N3CCN(C)CC3)c2)cc2c1cnn2C(C)C
Outline: as §1

[9] = compound: CCN(CC)Cc1ccc2cc(COC(=O)Nc3ccc(C(=O)NO)cc3)ccc2c1 [givinostat]
Outline: as §1

[10] = compound: CCN(CCCOc1ccc2c(Nc3cc(CC(=O)Nc4cccc(F)c4)[nH]n3)ncnc2c1)CCOP(=O)(O)O [barasertib]
Outline: as §1

Measured: log2 fold change

DERA (UniProt Q9Y315)
inactive: [1] -0.04 | [2] 0 | [3] -0.001 | [4] -0.018 | [5] -0.003 | [6] -0.033 | [7] 0.03 | [8] 0.11 | [9] -0.006 | [10] 0.024

DMAC2 isoform 4 (UniProt Q9NW81)
inactive: [1] -0.068 | [2] 0.074 | [3] 0.084 | [4] 0.034 | [5] -0.02 | [6] 0.008 | [7] 0.084 | [8] -0.005 | [9] -0.003 | [10] -0.162

DMTN (UniProt Q08495)
inactive: [1] -0.04 | [2] 0.018 | [3] 0.023 | [4] -0.008 | [5] -0.021 | [6] 0.02 | [7] 0.006 | [8] -0.005 | [9] -0.003 | [10] 0.009

DGKZ (UniProt Q13574)
inactive: [1] 0.068 | [2] 0.023 | [3] -0.051 | [4] 0 | [5] 0.031 | [6] -0.003 | [7] -0.034 | [8] -0.016 | [9] 0.084 | [10] -0.029

DIP2A (UniProt Q14689)
inactive: [1] 0.032 | [2] -0.013 | [3] -0.007 | [4] 0.07 | [5] -0.119 | [6] 0.05 | [7] -0.009 | [8] 0.336 | [9] -0.05 | [10] 0.118

DDX3X (UniProt O00571)
inactive: [1] 0.088 | [2] 0.124 | [3] -0.001 | [4] -0.099 | [5] 0.656 | [6] -0.051 | [7] 0.034 | [8] 0.212 | [9] 0.217 | [10] 0.037

DDX11 (UniProt Q96FC9)
inactive: [1] -0.04 | [2] 0.052 | [3] -0.035 | [4] 0.043 | [5] -0.011 | [6] -0.072 | [7] 0 | [8] -0.006 | [9] -0.029 | [10] 0.125

DNAAF2 (UniProt Q9NVR5)
inactive: [1] -0.037 | [2] -0.043 | [3] -0.046 | [4] -0.038 | [5] -0.034 | [6] 0.043 | [7] -0.038 | [8] -0.065 | [9] 0 | [10] -0.009

DMXL1 (UniProt Q9Y485)
inactive: [1] -0.075 | [2] -0.004 | [3] 0.025 | [4] 0.017 | [5] 0.044 | [6] 0.008 | [7] 0.032 | [8] 0.043 | [9] 0.076 | [10] 0.068

DLG2 isoform 2 (UniProt Q15700)
inactive: [1] 0.033 | [2] -0.013 | [3] 0.043 | [4] 0.022 | [5] 0.011 | [6] 0.022 | [7] 0.042 | [8] 0.329 | [9] 0.048 | [10] 0.118

DDHD2 (UniProt O94830)
inactive: [1] -0.058 | [2] 0.037 | [3] 0.029 | [4] 0.027 | [5] -0.018 | [6] -0.02 | [7] 0 | [8] -0.032 | [9] -0.029 | [10] 0.017

DDX19A (UniProt Q9NUU7)
inactive: [1] -0.031 | [2] -0.034 | [3] 0.023 | [4] 0.014 | [5] 0.032 | [6] 0.014 | [7] 0.142 | [8] 0.009 | [9] 0.023 | [10] 0.016

DNAH5 (UniProt Q8TE73)
active: [3] 0.431
inactive: [1] -0.047 | [2] 0 | [4] -0.036 | [5] -0.021 | [6] -0.077 | [7] 0.014 | [8] -0.044 | [9] 0.012 | [10] 0.03

DHODH (UniProt Q02127)
inactive: [1] 0.007 | [2] -0.006 | [3] -0.042 | [4] -0.009 | [5] -0.014 | [6] -0.035 | [7] -0.064 | [8] -0.026 | [9] -0.017 | [10] -0.016

DIS3 (UniProt Q9Y2L1)
inactive: [1] 0.039 | [2] -0.049 | [3] 0.027 | [4] 0.013 | [5] -0.047 | [6] 0.045 | [7] 0.047 | [8] 0.047 | [9] 0.121 | [10] 0.096

DCXR (UniProt Q7Z4W1)
inactive: [1] -0.036 | [2] 0.01 | [3] 0.011 | [4] 0.005 | [5] -0.085 | [6] -0.041 | [7] -0.007 | [8] -0.082 | [9] -0.016 | [10] -0.025

DENND4C isoform 7 (UniProt Q5VZ89)
inactive: [1] 0.098 | [2] 0 | [3] 0.038 | [4] -0.036 | [5] 0.05 | [6] 0.058 | [7] 0.045 | [8] -0.019 | [9] 0.115 | [10] 0.027

2 entries drawn at random from the list so far:
DHODH (UniProt Q02127)
inactive: [1] 0.007 | [2] -0.006 | [3] -0.042 | [4] -0.009 | [5] -0.014 | [6] -0.035 | [7] -0.064 | [8] -0.026 | [9] -0.017 | [10] -0.016

DCXR (UniProt Q7Z4W1)
inactive: [1] -0.036 | [2] 0.01 | [3] 0.011 | [4] 0.005 | [5] -0.085 | [6] -0.041 | [7] -0.007 | [8] -0.082 | [9] -0.016 | [10] -0.025

The list goes on:

DDX56 (UniProt Q9NY93)
inactive: [1] 0.14 | [2] -0.06 | [3] -0.014 | [4] -0.017 | [5] 0.275 | [6] 0.068 | [7] 0.077 | [8] 0.036 | [9] 0.078 | [10] -0.049

DECR1 (UniProt Q16698)
inactive: [1] 0.002 | [2] -0.007 | [3] 0.004 | [4] 0.002 | [5] -0.057 | [6] 0.023 | [7] 0.022 | [8] 0.005 | [9] -0.036 | [10] -0.009

DHRS2 (UniProt Q13268)
inactive: [1] -0.031 | [2] -0.069 | [3] -0.037 | [4] -0.027 | [5] -0.088 | [6] 0.009 | [7] -0.029 | [8] -0.01 | [9] -0.088 | [10] 0.022

DLG1 isoform 2 (UniProt Q12959)
inactive: [1] -0.026 | [2] -0.055 | [3] -0.003 | [4] 0.006 | [5] -0.006 | [6] 0.004 | [7] 0.073 | [8] 0.124 | [9] 0.025 | [10] -0.01

DHX16 (UniProt O60231)
inactive: [1] -0.014 | [2] -0.018 | [3] 0.024 | [4] 0.036 | [5] -0.002 | [6] 0.017 | [7] 0.059 | [8] -0.011 | [9] 0.017 | [10] 0.032

DEK (UniProt P35659)
inactive: [1] 0.057 | [2] -0.038 | [3] 0.067 | [4] 0.095 | [5] -0.011 | [6] 0.089 | [7] 0.129 | [8] 0.035 | [9] 0.026 | [10] 0.011

DDX46 (UniProt Q7L014)
inactive: [1] 0.123 | [2] -0.117 | [3] 0 | [4] 0.069 | [5] -0.069 | [6] 0.099 | [7] 0.136 | [8] 0.001 | [9] 0.171 | [10] 0.13

DIABLO (UniProt Q9NR28)
inactive: [1] 0 | [2] 0.033 | [3] -0.009 | [4] 0.013 | [5] -0.095 | [6] 0.093 | [7] 0.006 | [8] -0.036 | [9] -0.007 | [10] 0.002

DHRS4L1 (UniProt P0CG22)
inactive: [1] -0.007 | [2] -0.021 | [3] 0.017 | [4] 0.052 | [5] -0.076 | [6] -0.049 | [7] -0.025 | [8] -0.03 | [9] -0.016 | [10] -0.036

DDX17 (UniProt Q92841)
inactive: [1] 0.059 | [2] -0.065 | [3] -0.046 | [4] 0.047 | [5] 0.064 | [6] 0.053 | [7] 0.081 | [8] 0.006 | [9] 0.059 | [10] 0.009

DHX29 (UniProt Q7Z478)
inactive: [1] 0.025 | [2] -0.013 | [3] -0.097 | [4] -0.117 | [5] 0.141 | [6] -0.034 | [7] 0.002 | [8] 0.059 | [9] 0.04 | [10] -0.102

DHX8 (UniProt Q14562)
inactive: [1] -0.051 | [2] -0.063 | [3] -0.091 | [4] -0.045 | [5] -0.141 | [6] -0.2 | [7] -0.191 | [8] -0.083 | [9] -0.003 | [10] -0.013

DDA1 (UniProt Q9BW61)
inactive: [1] 0.001 | [2] -0.018 | [3] -0.017 | [4] 0.086 | [5] -0.107 | [6] -0.014 | [7] -0.008 | [8] 0.025 | [9] -0.035 | [10] 0.019
